Legend:
[1] = general procedure: Fmoc solid-phase peptide synthesis; Wang resin (DOTA-LB119); TBTU/HOBt/DIPEA (DTPA coupling); DIC/HOBt (Fmoc-Ahx); HATU (DOTA(OtBu)3); details: whole synthesis, HPLC on Nucleosil C18 or Discovery BIO SUPELCO Wide Pore column, water/CH3CN (0.05% TFA) gradient
[2] = peptide made by a vendor (Fmoc solid-phase peptide synthesis; Wang resin (DOTA-LB119); TBTU/HOBt/DIPEA (DTPA coupling); DIC/HOBt (Fmoc-Ahx); HATU (DOTA(OtBu)3)); details: conjugation step; for final HPLC purity: HPLC on Nucleosil C18 or Discovery BIO SUPELCO Wide Pore column, water/CH3CN (0.05% TFA) gradient

Substance | final HPLC purity [1] | final HPLC purity [2] | conjugation yield [2]
DTPA-Lys-Ψ(CH2-NH)-Arg-Pro-Tyr-Tle-Leu-OH | 97% |  | 
DTPA-Arg-Arg-Pro-Tyr-Ile-Leu-OH | >96% |  | 
DTPA-Ahx-Arg-Me-Arg-Pro-Tyr-Tle-Leu-OH | 92% |  | 
DTPA-Lys-Ψ(CH2-NH)-Arg-Pro-Tyr-Ile-Leu-OH | 95% |  | 
Ac-Lys(DTPA)-Pro-Arg-Arg-Pro-Tyr-Ile-Leu-OH |  | >99% | 
DTPA-Ahx-Arg-Me-Arg-Pro-Dmt-Tle-Leu-OH | 97% |  | 
Ac-Lys(Ahx-DOTA)-Pro-Me-Arg-Arg-Pro-Dmt-Tle-Leu-OH | >95% |  | 
Ac-Lys(DTPA)-Pro-Arg-Arg-Pro-Tyr-Tle-Leu-OH |  | >97% | 
Ac-Lys(DTPA)-Pro-Me-Arg-Arg-Pro-Tyr-Tle-Leu-OH |  | >99% | 
Ac-Lys(DOTA)-Pro-Me-Arg-Arg-Pro-Tyr-Tle-Leu-OH |  | 98% | approximately 85%
